Results on 3 molecules are retold here after publication PMC12013442.

By UniProt entry, the sequences of proteins in these tests, tags left out. Residues count along the entry.
UniProt P03186, residues 1-235: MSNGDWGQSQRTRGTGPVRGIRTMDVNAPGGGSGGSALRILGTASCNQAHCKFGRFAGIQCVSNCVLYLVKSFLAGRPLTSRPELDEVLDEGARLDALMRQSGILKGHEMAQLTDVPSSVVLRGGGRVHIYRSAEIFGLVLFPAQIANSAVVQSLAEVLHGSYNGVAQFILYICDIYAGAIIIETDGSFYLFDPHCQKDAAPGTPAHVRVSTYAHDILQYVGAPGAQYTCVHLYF

Sequences and labels used below:
B1: RPN1 (ribophorin I), endogenous (protein, UniProt P04843 24-607)
chain: ASSEAPPLINEDVKRTVDLSSHLAKVTAEVVLAHLGGGSTSRATSFLLALEPELEARLAHLGVQVKGEDEEENNLEVRETKIKGKSGRFFTVKLPVALDPGAKISVIVETVYTHVLHPYPTQITQSEKQFVVFEGNHYFYSPYPTKTQTMRVKLASRNVESYTKLGNPTRSEDLLDYGPFRDVPAYSQDTFKVHYENNSPFLTITSMTRVIEVSHWGNIAVEENVDLKHTGAVLKGPFSRYDYQRQPDSGISSIRSFKTILPAAAQDVYYRDEIGNVSTSHLLILDDSVEMEIRPRFPLFGGWKTHYIVGYNLPSYEYLYNLGDQYALKMRFVDHVFDEQVIDSLTVKIILPEGAKNIEIDSPYEISRAPDELHYTYLDTFGRPVIVAYKKNLVEQHIQDIVVHYTFNKVLMLQEPLLVVAAFYILFFTVIIYVRLDFSITKDPAAEARMKVACITEQVLTLVNKRIGLYRHFDETVNRYKQSRDISTLNSGKKSLETEHKALTSEIALLQSRLKTEGSDLCDRVSEMQKLDAQVKELVLKSAVEAERLVAGKLKKDTYIENEKLISGKRQELVTKIDHILDAL
B2: EIF2A, endogenous (protein, UniProt Q9BY44 1-585)
chain: MAPSTPLLTVRGSEGLYMVNGPPHFTESTVFPRESGKNCKVCIFSKDGTLFAWGNGEKVNIISVTNKGLLHSFDLLKAVCLEFSPKNTVLATWQPYTTSKDGTAGIPNLQLYDVKTGTCLKSFIQKKMQNWCPSWSEDETLCARNVNNEVHFFENNNFNTIANKLHLQKINDFVLSPGPQPYKVAVYVPGSKGAPSFVRLYQYPNFAGPHAALANKSFFKADKVTMLWNKKATAVLVIASTDVDKTGASYYGEQTLHYIATNGESAVVQLPKNGPIYDVVWNSSSTEFCAVYGFMPAKATIFNLKCDPVFDFGTGPRNAAYYSPHGHILVLAGFGNLRGQMEVWDVKNYKLISKPVASDSTYFAWCPDGEHILTATCAPRLRVNNGYKIWHYTGSILHKYDVPSNAELWQVSWQPFLDGIFPAKTITYQAVPSEVPNEEPKVATAYRPPALRNKPITNSKLHEEEPPQNMKPQSGNDKPLSKTALKNQRKHEAKKAAKQEARSDKSPDLAPTPAPQSTPRNTVSQSISGDPEIDKKIKNLKKKLKAIEQLKEQAATGKQLEKNQLEKIQKETALLQELEDLELGI
B3: CYB5R3 (cytochrome b5 reductase 3), endogenous (enzyme, UniProt P00387 1-301)
chain: MGAQLSTLGHMVLFPVWFLYSLLMKLFQRSTPAITLESPDIKYPLRLIDREIISHDTRRFRFALPSPQHILGLPVGQHIYLSARIDGNLVVRPYTPISSDDDKGFVDLVIKVYFKDTHPKFPAGGKMSQYLESMQIGDTIEFRGPSGLLVYQGKGKFAIRPDKKSNPIIRTVKSVGMIAGGTGITPMLQVIRAIMKDPDDHTVCHLLFANQTEKDILLRPELEELRNKHSARFKLWYTLDRAPEAWDYGQGFVNEEMIRDHLPPPEEEPLVLMCGPPPMIQYACLPNLDHVGHPTERCFVF

No constants are given. Whether binding was seen depends on the method and setting. Binding seen in cells or lysates may run through a third protein. Some results given as binding are weak or reduced against the parent protein; the word gives no strength.

The assay has as its target FLAG-BPLF1 (vDUB, N-terminal domain of the Epstein-Barr virus large tegument protein BPLF1) (Epstein-Barr virus) (UniProt P03186). Description: co-IP; HEK293T harvested 24 h after transfection; lysates incubated with anti-FLAG agarose affinity gel for 3 h at 4°C; immunoblot.
Consider B1, for which the binding entry is recorded as “binds”.

Turning to B2, the binding entry is reported as “binds”.

For B3, the binding entry was “binds”.
